PMC3808539, “CtpB Assembles a Gated Protease Tunnel Regulating Cell-Cell Signaling during Spore Formation in Bacillus subtilis” (Cell, 2013)
These are yes or no findings as the source states them, for the method shown. Binding can be weak; no strength is given.

Molecular target: T1, peptide NH2-…-COOH (spot 594 of the inverted peptide array) (B. subtilis)
T1 sequence (peptide): NLVLAGLHSYA
Experiment: peptide or protein array; inverted peptides (free C termini) on a cellulose membrane; incubated with CtpB variant 10 μg/ml overnight at 4°C, TBS pH 8.0; detected with anti-polyHis antibody; both purified

## isolated PDZ domain of CtpB (B. subtilis) (domain or fragment)
  binding: binds
